Results on 1 substance are retold here after PMC9457086.

Amino acid sequences for entries named in this document (tags omitted).
UniProt P11142: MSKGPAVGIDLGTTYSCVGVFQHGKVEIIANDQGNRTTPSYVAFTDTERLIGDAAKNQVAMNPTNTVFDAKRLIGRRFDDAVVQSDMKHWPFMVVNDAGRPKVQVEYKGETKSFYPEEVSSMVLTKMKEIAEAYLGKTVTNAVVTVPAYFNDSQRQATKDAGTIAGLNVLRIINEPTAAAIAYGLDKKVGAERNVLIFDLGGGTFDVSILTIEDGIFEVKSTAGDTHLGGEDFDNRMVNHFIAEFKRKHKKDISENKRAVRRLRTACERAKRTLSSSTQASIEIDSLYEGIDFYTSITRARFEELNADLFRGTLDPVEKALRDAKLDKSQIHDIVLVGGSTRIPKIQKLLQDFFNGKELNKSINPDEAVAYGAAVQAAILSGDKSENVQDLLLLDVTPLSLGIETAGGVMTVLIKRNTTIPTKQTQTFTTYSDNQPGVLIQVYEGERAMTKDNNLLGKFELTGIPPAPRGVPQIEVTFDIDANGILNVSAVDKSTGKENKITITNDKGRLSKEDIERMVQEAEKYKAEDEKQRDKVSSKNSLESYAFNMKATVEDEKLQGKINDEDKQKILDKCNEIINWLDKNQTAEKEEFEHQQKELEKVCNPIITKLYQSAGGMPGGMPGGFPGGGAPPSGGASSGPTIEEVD

The assay addresses T1, phosphatase and actin regulator-1 (PHACTR1), overexpressed from adenovirus Ad-PHACTR1 (human) (UniProt Q9C0D0).
T1 sequence: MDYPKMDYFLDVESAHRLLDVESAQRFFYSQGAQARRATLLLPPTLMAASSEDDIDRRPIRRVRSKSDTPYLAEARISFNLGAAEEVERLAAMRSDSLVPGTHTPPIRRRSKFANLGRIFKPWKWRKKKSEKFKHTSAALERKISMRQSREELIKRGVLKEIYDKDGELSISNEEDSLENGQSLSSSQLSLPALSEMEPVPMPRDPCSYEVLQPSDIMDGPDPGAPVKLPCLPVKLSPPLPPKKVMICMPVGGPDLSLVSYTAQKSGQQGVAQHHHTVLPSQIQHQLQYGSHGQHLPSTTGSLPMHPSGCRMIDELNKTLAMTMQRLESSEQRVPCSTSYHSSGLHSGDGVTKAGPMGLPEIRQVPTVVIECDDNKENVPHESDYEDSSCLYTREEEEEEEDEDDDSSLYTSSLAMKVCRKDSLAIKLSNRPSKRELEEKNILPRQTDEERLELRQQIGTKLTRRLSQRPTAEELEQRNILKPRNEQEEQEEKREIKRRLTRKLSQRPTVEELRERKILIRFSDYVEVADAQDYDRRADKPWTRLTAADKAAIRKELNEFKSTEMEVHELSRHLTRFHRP
Description: co-IP; Co-IP of PHACTR1 and HSPA8 in HUVECs treated with TNF-α (10 ng/mL, 6 h); immunoprecipitation-based verification.

Results are given in words; binding and its absence hold for the method and conditions named. Binding seen in cells or lysates may run through a third protein. Some entries that bind do so weakly or less than the wild type. Tags and fused reporters may be left off the sequences shown.

On to “heat shock protein family A member 8 (HSPA8) (from UniProt P11142 1-646)”, for which the binding entry is on record as “binds”.
